According to publication PMC4534575, “The RNA Helicase DHX34 Activates NMD by Promoting a Transition from the Surveillance to the Decay-Inducing Complex” (Cell Reports, 2014):
These are yes or no findings as the source states them, for the method shown. In cells and extracts the contact can be indirect. For some assays here: Binding can be weak; no strength is given.

Experiments:
T7-DHX34ΔHrpA (human) = assay: co-IP; IP of transiently transfected T7-DHX34 (wild-type or mutants) from HEK293T lysate, in the presence of RNase A (Figure 3B); endogenous partners by western blot
T7-DHX34 ΔDExH/D (human) = assay: as above

binding (T7-DHX34ΔHrpA (human)): no binding
binding (T7-DHX34 ΔDExH/D (human)): binds
B1: endogenous UPF1 (protein, UniProt Q92900 1-1129)
chain: MSVEAYGPSSQTLTFLDTEEAELLGADTQGSEFEFTDFTLPSQTQTPPGGPGGPGGGGAGGPGGAGAGAAAGQLDAQVGPEGILQNGAVDDSVAKTSQLLAELNFEEDEEDTYYTKDLPIHACSYCGIHDPACVVYCNTSKKWFCNGRGNTSGSHIVNHLVRAKCKEVTLHKDGPLGETVLECYNCGCRNVFLLGFIPAKADSVVVLLCRQPCASQSSLKDINWDSSQWQPLIQDRCFLSWLVKIPSEQEQLRARQITAQQINKLEELWKENPSATLEDLEKPGVDEEPQHVLLRYEDAYQYQNIFGPLVKLEADYDKKLKESQTQDNITVRWDLGLNKKRIAYFTLPKTDSGNEDLVIIWLRDMRLMQGDEICLRYKGDLAPLWKGIGHVIKVPDNYGDEIAIELRSSVGAPVEVTHNFQVDFVWKSTSFDRMQSALKTFAVDETSVSGYIYHKLLGHEVEDVIIKCQLPKRFTAQGLPDLNHSQVYAVKTVLQRPLSLIQGPPGTGKTVTSATIVYHLARQGNGPVLVCAPSNIAVDQLTEKIHQTGLKVVRLCAKSREAIDSPVSFLALHNQIRNMDSMPELQKLQQLKDETGELSSADEKRYRALKRTAERELLMNADVICCTCVGAGDPRLAKMQFRSILIDESTQATEPECMVPVVLGAKQLILVGDHCQLGPVVMCKKAAKAGLSQSLFERLVVLGIRPIRLQVQYRMHPALSAFPSNIFYEGSLQNGVTAADRVKKGFDFQWPQPDKPMFFYVTQGQEEIASSGTSYLNRTEAANVEKITTKLLKAGAKPDQIGIITPYEGQRSYLVQYMQFSGSLHTKLYQEVEIASVDAFQGREKDFIILSCVRANEHQGIGFLNDPRRLNVALTRARYGVIIVGNPKALSKQPLWNHLLNYYKEQKVLVEGPLNNLRESLMQFSKPRKLVNTINPGARFMTTAMYDAREAIIPGSVYDRSSQGRPSSMYFQTHDQIGMISAGPSHVAAMNIPIPFNLVMPPMPPPGYFGQANGPAAGRGTPKGKTGRGGRQKNRFGLPGPSQTNLPNSQASQDVASQPFSQGALTQGYISMSQPSQMSQPGLSQPELSQDSYLGDEFKSQIDVALSQDSTYQGERAYQHGGVTGLSQY
